Laboratory results: publication PMC11077067, “Protein G-quadruplex interactions and their effects on phase transitions and protein aggregation”
Substitutions are numbered along the chain they refer to. Where a protein sequence is shown, tags need not be part of it. For some assays here: For at least one entry, the source does not settle the construct or the ends of the probe. For some assays here: Weaker means in comparison with the reference protein, sequence or condition of that experiment. For some assays here: At least one verdict was read from the data and is not stated in words by the source.

Columns and labels:
[1] = target: T1, Znf706 (Homo sapiens) (UniProt Q9Y5V0); assay: NMR; details: perturbation not predominantly N-terminal at 5 uM, perturbed at 50 uM G4; NMR: 20 mM NaPi, 100 mM KCl, 7.5% D2O, pH 7.4, 4-50 C; recombinant protein; residues 1-76; folded or branched DNA
T1 sequence (looked up): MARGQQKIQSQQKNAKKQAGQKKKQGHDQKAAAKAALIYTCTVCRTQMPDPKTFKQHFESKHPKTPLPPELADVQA

[2] = target: T1, Znf706 (Homo sapiens); assay: fluorescence polarization; details: 100 mM LiCl (G4 disfavored), Kd substantially increased, value in figure; FP/anisotropy: 20 mM NaPi, 100 mM KCl, 0.05% NaN3, pH 7.4, 25 C (LiCl variant: 20 mM Tris-HCl, 100 mM LiCl, pH 7.4); recombinant protein; residues 1-76; label: 5' 6-FAM; folded or branched DNA
[3] = target: T2, Znf706 C-terminal zinc finger (Homo sapiens) (UniProt Q9Y5V0); assay: fluorescence polarization; details: 100 mM KCl, very weak, FP/anisotropy: 20 mM NaPi, 0.05% NaN3, pH 7.4, 25 C (LiCl variant: 20 mM Tris-HCl, 100 mM LiCl, pH 7.4), recombinant protein, residues 36-76, label: 5' 6-FAM, folded or branched DNA
T2 sequence (looked up): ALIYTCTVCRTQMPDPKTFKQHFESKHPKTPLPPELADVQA

[4] = target: T3, Znf706 A76C-MTSL (Homo sapiens) (UniProt Q9Y5V0); assay: PRE NMR; details: reciprocal PRE on N-terminus, cMyc implied; NMR: 20 mM NaPi, 100 mM KCl, 7.5% D2O, pH 7.4, 4-50 C; recombinant protein; residues 1-76; folded or branched DNA
T3 sequence (looked up): T1 sequence (looked up) with A76C

[5] = target: T4, Znf706 A2C-NEM (Homo sapiens) (UniProt Q9Y5V0); assay: NMR; details: 2:1 protein:DNA, 100 mM KCl, 4 C, NMR: 20 mM NaPi, 7.5% D2O, pH 7.4, 4-50 C, recombinant protein, residues 1-76, folded or branched DNA
T4 sequence (looked up): T1 sequence (looked up) with A2C

Sequence	binding result [2]	Kd [3]	also measured
GGCGAGGAGGGGCGTGGCCGGC [Kit*]			binding result [1]: binds more weakly
AGGAGGGGGGCGGGA [Bcl2SH, 6-FAM]	binds more weakly	> 200 µM	
GGGCGCGGGAGGAAGGGGGCGGG [Bcl2WT, 6-FAM]		> 200 µM	
TAGGGAGGGTAGGGAGGGT [cMyc (Pu19_A2A11)]			binding result [4]: binds; binding result [5]: binds
TAGGGAGGGTAGGGAGGGT [cMyc (Pu19_A2A11), 6-FAM]	binds more weakly	> 200 µM	
